# Reference: PubChem BioAssay AID504774 (Drosophila RNAi Screening Center, 2011)
# Test: 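Fly genes whose loss alters survival after alkylation damage to DNA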 (primary screen)
# System: Drosophila Kc167 cells
# Reagents: long dsRNA against Drosophila genes, about 0.25 µg dsRNA per well
# Time to read-out: about 6 days: 3 days knock-down, then 3 days with or without MMS
# Conditions: methyl methanesulphonate 0.004% (w/v) for 3 days after knock-down
# Measured: 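Viability in wells given MMS, read as ATP luminescence, normalised by quantiles plate by plate and averaged across replicates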
# Reading the numbers: mean viability with MMS and viability with MMS: higher = more surviving cells after MMS
# The screen tested about 23,000 reagents; shown is a random part of those that have a named target and a result. 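Values are quantile-normalised luminescence on an arbitrary scale; higher means more cells surviving MMS.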 The numbers tell different reagents against one gene apart. Names joined by + are all predicted targets of the reagent.
target gene,reagent,mean viability with MMS,"viability with MMS, replicate 1","viability with MMS, replicate 2"
CG31661,1,3.41e6,3.88e6,3.80e6
CG7514,1,3.70e6,4.28e6,4.12e6
Atx-1,1,3.68e6,4.30e6,4.05e6
Usp16-45,1,3.63e6,4.17e6,4.14e6
RAF2,1,3.56e6,4.13e6,3.93e6
RAF2,2,3.68e6,4.14e6,4.15e6
CG18766,1,3.47e6,3.96e6,3.92e6
CG14572,1,3.67e6,4.08e6,4.18e6
CG6425,1,3.64e6,4.17e6,4.05e6
CG4074 + CG4186,1,3.77e6,4.25e6,4.18e6
Ac76E,1,3.60e6,4.15e6,4.01e6
Ac76E,2,3.66e6,4.11e6,4.15e6
CG33655,1,3.45e6,3.98e6,3.86e6
CG42245 + MEP-1,1,3.59e6,4.03e6,4.11e6
CG42245 + MEP-1,2,3.29e6,3.79e6,3.75e6
CG42245 + MEP-1,3,2.87e6,3.63e6,3.64e6
Ptpmeg2,1,3.39e6,3.93e6,3.78e6
Ptpmeg2,2,3.44e6,3.92e6,3.88e6
Ptpmeg2,3,3.63e6,4.11e6,4.13e6
exex,1,3.61e6,4.14e6,4.05e6
Dnaaf6,1,3.72e6,4.17e6,4.19e6
rasp,1,3.39e6,3.80e6,3.90e6
Septin2,1,3.57e6,3.93e6,4.18e6
CG32318 + Klp61F + Psf1,1,2.80e6,2.96e6,3.19e6
Naa35,1,3.46e6,3.86e6,3.93e6
CG32982,1,3.19e6,3.63e6,3.59e6
CG32982,2,3.74e6,4.04e6,4.46e6
CG32982,3,3.65e6,4.07e6,4.07e6
CG32982,4,3.81e6,4.58e6,4.10e6
CG32982,5,3.57e6,4.11e6,3.95e6
CG16758,1,3.53e6,4.11e6,3.89e6
CG16758,2,3.49e6,3.94e6,3.95e6
eff,1,3.34e6,3.80e6,3.76e6
CG15594,1,3.40e6,3.85e6,3.89e6
RpL22,1,3.61e6,4.11e6,4.09e6
RpL22,2,2.47e6,3.55e6,3.55e6
GstT4,1,3.46e6,4.00e6,4.07e6
Eip63E,1,3.61e6,4.31e6,3.87e6
KLHL18,1,3.55e6,4.14e6,3.91e6
CG6870,1,3.52e6,4.10e6,3.89e6
CG12159,1,3.59e6,4.13e6,3.98e6
Tsp29Fa,1,3.71e6,4.16e6,4.25e6
Spg7,1,3.61e6,4.18e6,4.01e6
CG8303,1,3.45e6,3.86e6,3.94e6
CG32302,1,3.57e6,4.03e6,4.04e6
GstE3,1,3.42e6,3.79e6,3.93e6

Only “viability with MMS, replicate 1”, for 2 of the entries above:
Eip63E = 4.31e6
KLHL18 = 4.14e6
